Source: US20250283871A1, “COMPOSITIONS AND METHODS FOR MODULATING THE INTERACTION BETWEEN SS18-SSX FUSION ONCOPROTEIN AND NUCLEOSOMES” (Dana-Farber Cancer Institute, Inc., priority 2020, published 2025)

B1: XAB2 (protein, UniProt Q9HCS7 1-855, looked up)
Pre-mRNA-splicing factor SYF1: MVVMARLSRPERPDLVFEEEDLPYEEEIMRNQFSVKCWLRYIEFKQGAPKPRLNQLYERALKLLPCSYKLWYRYLKARRAQVKHRCVTDPAYEDVNNCHERAFVFMHKMPRLWLDYCQFLMDQGRVTHTRRTFDRALRALPITQHSRIWPLYLRFLRSHPLPETAVRGYRRFLKLSPESAEEYIEYLKSSDRLDEAAQRLATVVNDERFVSKAGKSNYQLWHELCDLISQNPDKVQSLNVDAIIRGGLTRFTDQLGKLWCSLADYYIRSGHFEKARDVYEEAIRTVMTVRDFTQVFDSYAQFEESMIAAKMETASELGREEEDDVDLELRLARFEQLISRRPLLLNSVLLRQNPHHVHEWHKRVALHQGRPREIINTYTEAVQTVDPFKATGKPHTLWVAFAKFYEDNGQLDDARVILEKATKVNFKQVDDLASVWCQCGELELRHENYDEALRLLRKATALPARRAEYFDGSEPVQNRVYKSLKVWSMLADLEESLGTFQSTKAVYDRILDLRIATPQIVINYAMFLEEHKYFEESFKAYERGISLFKWPNVSDIWSTYLTKFIARYGGRKLERARDLFEQALDGCPPKYAKTLYLLYAQLEEEWGLARHAMAVYERATRAVEPAQQYDMFNIYIKRAAEIYGVTHTRGIYQKAIEVLSDEHAREMCLRFADMECKLGEIDRARAIYSFCSQICDPRTTGAFWQTWKDFEVRHGNEDTIKEMLRIRRSVQATYNTQVNFMASQMLKVSGSATGTVSDLAPGQSGMDDMKLLEQRAEQLAAEAERDQPLRAQSKILFVRSDASREELAELAQQVNPEEIQLGEDEDEDEMDLEPNEVRLEQQSVPAAVFGSLKED
B2: ADAR (protein, UniProt P55265 1-1226, looked up)
Double-stranded RNA-specific …: MNPRQGYSLSGYYTHPFQGYEHRQLRYQQPGPGSSPSSFLLKQIEFLKGQLPEAPVIGKQTPSLPPSLPGLRPRFPVLLASSTRGRQVDIRGVPRGVHLRSQGLQRGFQHPSPRGRSLPQRGVDCLSSHFQELSIYQDQEQRILKFLEELGEGKATTAHDLSGKLGTPKKEINRVLYSLAKKGKLQKEAGTPPLWKIAVSTQAWNQHSGVVRPDGHSQGAPNSDPSLEPEDRNSTSVSEDLLEPFIAVSAQAWNQHSGVVRPDSHSQGSPNSDPGLEPEDSNSTSALEDPLEFLDMAEIKEKICDYLFNVSDSSALNLAKNIGLTKARDINAVLIDMERQGDVYRQGTTPPIWHLTDKKRERMQIKRNTNSVPETAPAAIPETKRNAEFLTCNIPTSNASNNMVTTEKVENGQEPVIKLENRQEARPEPARLKPPVHYNGPSKAGYVDFENGQWATDDIPDDLNSIRAAPGEFRAIMEMPSFYSHGLPRCSPYKKLTECQLKNPISGLLEYAQFASQTCEFNMIEQSGPPHEPRFKFQVVINGREFPPAEAGSKKVAKQDAAMKAMTILLEEAKAKDSGKSEESSHYSTEKESEKTAESQTPTPSATSFFSGKSPVTTLLECMHKLGNSCEFRLLSKEGPAHEPKFQYCVAVGAQTFPSVSAPSKKVAKQMAAEEAMKALHGEATNSMASDNQPEGMISESLDNLESMMPNKVRKIGELVRYLNTNPVGGLLEYARSHGFAAEFKLVDQSGPPHEPKFVYQAKVGGRWFPAVCAHSKKQGKQEAADAALRVLIGENEKAERMGFTEVTPVTGASLRRTMLLLSRSPEAQPKTLPLTGSTFHDQIAMLSHRCFNTLTNSFQPSLLGRKILAAIIMKKDSEDMGVVVSLGTGNRCVKGDSLSLKGETVNDCHAEIISRRGFIRFLYSELMKYNSQTAKDSIFEPAKGGEKLQIKKTVSFHLYISTAPCGDGALFDKSCSDRAMESTESRHYPVFENPKQGKLRTKVENGEGTIPVESSDIVPTWDGIRLGERLRTMSCSDKILRWNVLGLQGALLTHFLQPIYLKSVTLGYLFSQGHLTRAICCRVTRDGSAFEDGLRHPFIVNHPKVGRVSIYDSKRQSGKTKETSVNWCLADGYDLEILDGTRGTVDGPRNELSRVSKKNIFLLFKKLCSFRYRRDLLRLSYGEAKKAARDYETAKNYFKKGLKDMGYGNWISKPQEEKNFYLCPV
B3: WDR3 (protein, UniProt Q9UNX4 1-943, looked up)
WD repeat-containing protein 3: MGLTKQYLRYVASAVFGVIGSQKGNIVFVTLRGEKGRYVAVPACEHVFIWDLRKGEKILILQGLKQEVTCLCPSPDGLHLAVGYEDGSIRIFSLLSGEGNVTFNGHKAAITTLKYDQLGGRLASGSKDTDIIVWDVINESGLYRLKGHKDAITQALFLREKNLLVTSGKDTMVKWWDLDTQHCFKTMVGHRTEVWGLVLLSEEKRLITGASDSELRVWDIAYLQEIEDPEEPDPKKIKGSSPGIQDTLEAEDGAFETDEAPEDRILSCRKAGSIMREGRDRVVNLAVDKTGRILACHGTDSVLELFCILSKKEIQKKMDKKMKKARKKAKLHSSKGEEEDPEVNVEMSLQDEIQRVTNIKTSAKIKSFDLIHSPHGELKAVFLLQNNLVELYSLNPSLPTPQPVRTSRITIGGHRSDVRTLSFSSDNIAVLSAAADSIKIWNRSTLQCIRTMTCEYALCSFFVPGDRQVVIGTKTGKLQLYDLASGNLLETIDAHDGALWSMSLSPDQRGFVTGGADKSVKFWDFELVKDENSTQKRLSVKQTRTLQLDEDVLCVSYSPNQKLLAVSLLDCTVKIFYVDTLKFFLSLYGHKLPVICMDISHDGALIATGSADRNVKIWGLDFGDCHKSLFAHDDSVMYLQFVPKSHLFFTAGKDHKIKQWDADKFEHIQTLEGHHQEIWCLAVSPSGDYVVSSSHDKSLRLWERTREPLILEEEREMEREAEYEESVAKEDQPAVPGETQGDSYFTGKKTIETVKAAERIMEAIELYREETAKMKEHKAICKAAGKEVPLPSNPILMAYGSISPSAYVLEIFKGIKSSELEESLLVLPFSYVPDILKLFNEFIQLGSDVELICRCLFFLLRIHFGQITSNQMLVPVIEKLRETTISKVSQVRDVIGFNMAGLDYLKRECEAKSEVMFFADATSHLEEKKRKRKKREKLILTLT
B4: PRPF40A (protein, UniProt O75400 1-957, looked up)
Pre-mRNA-processing factor 40 …: MRPGTGAERGGLMVSEMESHPPSQGPGDGERRLSGSSLCSGSWVSADGFLRRRPSMGHPGMHYAPMGMHPMGQRANMPPVPHGMMPQMMPPMGGPPMGQMPGMMSSVMPGMMMSHMSQASMQPALPPGVNSMDVAAGTASGAKSMWTEHKSPDGRTYYYNTETKQSTWEKPDDLKTPAEQLLSKCPWKEYKSDSGKPYYYNSQTKESRWAKPKELEDLEGYQNTIVAGSLITKSNLHAMIKAEESSKQEECTTTSTAPVPTTEIPTTMSTMAAAEAAAAVVAAAAAAAAAAAAANANASTSASNTVSGTVPVVPEPEVTSIVATVVDNENTVTISTEEQAQLTSTPAIQDQSVEVSSNTGEETSKQETVADFTPKKEEEESQPAKKTYTWNTKEEAKQAFKELLKEKRVPSNASWEQAMKMIINDPRYSALAKLSEKKQAFNAYKVQTEKEEKEEARSKYKEAKESFQRFLENHEKMTSTTRYKKAEQMFGEMEVWNAISERDRLEIYEDVLFFLSKKEKEQAKQLRKRNWEALKNILDNMANVTYSTTWSEAQQYLMDNPTFAEDEELQNMDKEDALICFEEHIRALEKEEEEEKQKSLLRERRRQRKNRESFQIFLDELHEHGQLHSMSSWMELYPTISSDIRFTNMLGQPGSTALDLFKFYVEDLKARYHDEKKIIKDILKDKGFVVEVNTTFEDFVAIISSTKRSTTLDAGNIKLAFNSLLEKAEAREREREKEEARKMKRKESAFKSMLKQAAPPIELDAVWEDIRERFVKEPAFEDITLESERKRIFKDFMHVLEHECQHHHSKNKKHSKKSKKHHRKRSRSRSGSDSDDDDSHSKKKRQRSESRSASEHSSSAESERSYKKSKKHKKKSKKRRHKSDSPESDAEREKDKKEKDRESEKDRTRQRSESKHKSPKKKTGKDSGNWDTSGSELSEGELEKRRRTLLEQLDDDQ
B5: LCOR (protein, UniProt Q96JN0 1-433, looked up)
Ligand-dependent corepressor: MQRMIQQFAAEYTSKNSSTQDPSQPNSTKNQSLPKASPVTTSPTAATTQNPVLSKLLMADQDSPLDLTVRKSQSEPSEQDGVLDLSTKKSPCAGSTSLSHSPGCSSTQGNGRPGRPSQYRPDGLRSGDGVPPRSLQDGTREGFGHSTSLKVPLARSLQISEELLSRNQLSTAASLGPSGLQNHGQHLILSREASWAKPHYEFNLSRMKFRGNGALSNISDLPFLAENSAFPKMALQAKQDGKKDVSHSSPVDLKIPQVRGMDLSWESRTGDQYSYSSLVMGSQTESALSKKLRAILPKQSRKSMLDAGPDSWGSDAEQSTSGQPYPTSDQEGDPGSKQPRKKRGRYRQYNSEILEEAISVVMSGKMSVSKAQSIYGIPHSTLEYKVKERLGTLKNPPKKKMKLMRSEGPDVSVKIELDPQGEAAQSANESKNE

System: BAF complex subunits and histone proteins
Assay: Mass spectrometry proteomics of purified HA-SS18 WT and HA-SS18-SSX1 complexes (Tables 5A-5E)
Parameters: species or system human
[1] = HA-SS18SSX1_CHR_peptides: protein identified in the HA-SS18-SSX1 purification from solubilized chromatin (CHR), HEK-293T
[2] = HA-SS18WT_CHR_peptides: HA-SS18 WT purification from nuclease-treated solubilized chromatin (CHR), HEK-293T, label = protein identified
[3] = HA-SS18SSX1_NE_peptides: protein co-purified with HA-SS18-SSX1 BAF complexes from soluble nuclear extract (NE), HEK-293T cells
[4] = HA-SS18WT_NE_peptides: proteins co-purified with HA-SS18 WT from nuclear extract (NE), HEK-293T
[5] = HA-SS18SSX1 purification, NE (soluble nuclear extract) fraction, HEK-293T, peptides per identified protein
[6] = HA-SS18WT_NE_peptides: HA-SS18 WT complexes purified from nuclear extract (NE), HEK-293T, label = protein identified (Gene Symbol)

Molecule	Total (total peptides) [1]	Unique (unique peptides) [1]	Total (peptides) [2]	Unique (peptides) [2]	Total (peptides) [3]	Unique (peptides) [3]	Total (peptides) [4]	Unique (peptides) [4]	Total (total peptides) [5]	Unique (unique peptides) [5]	Total (peptides) [6]	Unique (peptides) [6]
B1	5	5	6	6								
B2	5	5	8	8	2	2	1	1				
B3	5	5										
B4	5	5	4	4					4	4	3	3
B5	5	5	3	3								
